{"source": "PubChem BioAssay AID1508600", "about": "(Functional Genomics Laboratory (NCATS/FGL), 2020)", "note": "About 3,700 (7%) of roughly 53,000 sequences were called active.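 How the source made its calls: active means gene knockdowns whose robust z-score for IL-1 alpha signal is at least 2 or at most -2, so actives lie on both sides; inactive means the rest.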 The list shows a part of the results.", "data": [{"experiment": "Components of the Cytosolic LPS Sensing Pathway: Gene Identification via Genome-wide siRNA Screen;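 further: robust z of the log signal after scaling to non-targeting control siRNA wells of the plate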", "conditions": "RAW264.7 macrophages, IL-1a HTRF, actives lie on both sides, screened at 100 nM (by protocol), cells primed 5 h with Pam3CSK4 first", "method_in_brief": "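RAW264.7 mouse macrophages reverse-transfected with single siRNAs (100 nM final) for 48h, primed with Pam3CSK4 for 5 hours, then transfected with LipidA for 24 hour. Supernatant IL-1a read by HTRF; values normalized to negative-control median, log-transformed robust z-scores.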", "values": [{"sequence": "GGCGAACACCAUGAAAAGGTT against Lin7b", "z-score": "inactive: 0.794"}, {"sequence": "GGUUAUGGUUUUGUUGACUTT against Rbms1", "z-score": "inactive: -0.606"}, {"sequence": "GGAAAGAAAUUGUAAAUGGTT against Nrcam", "z-score": "inactive: -0.122"}, {"sequence": "GGCUGACAGUAACAAGUGGTT against Fignl1", "z-score": "active: 3.72"}, {"sequence": "GGAGUGACACUAUUGGGAATT against Gm10283", "z-score": "inactive: 0.671"}, {"sequence": "GGCAGAGAAAACAAGAUUATT against Arc", "z-score": "inactive: -0.226"}, {"sequence": "GGCAAUACAAACAAGUUCUTT against Klhdc2", "z-score": "inactive: 1.05"}, {"sequence": "CCAUAUUUGAAGUUUGAACTT against Rundc3b", "z-score": "inactive: 0.612"}, {"sequence": "GGAGGAAAGACGAAUCAACTT against Clcn7", "z-score": "inactive: 1.44"}, {"sequence": "GGGCAUUUCAUACAACUCATT against Wnk1", "z-score": "inactive: -1.03"}, {"sequence": "CGUGUAAACGCAAUUAAAATT against Zfp870", "z-score": "inactive: 0.272"}, {"sequence": "GGAGAGACCACCCUUUCAGTT against Fahd2a", "z-score": "inactive: -0.432"}, {"sequence": "CCAUUAUGUCGAUUCUAUCTT against Ndp", "z-score": "inactive: -0.062"}, {"sequence": "CCCUCCACUAUGAUCAAUCTT against Adgrg1", "z-score": "inactive: 0.506"}, {"sequence": "CGAGUAAAAGAGAUCUACATT against Eya1", "z-score": "inactive: 1.51"}, {"sequence": "GCAACGAGGUACUGUUUUATT against Rab7b", "z-score": "inactive: 0.626"}, {"sequence": "GCUGCUCAAUCGGAAAUACTT against Clk1", "z-score": "active: -2.06"}, {"sequence": "GGGAGCUCCUUACAGAGACTT against 1700041G16Rik", "z-score": "inactive: -0.102"}, {"sequence": "GGGCCAUCCUUUGGUUACATT against Dtnb", "z-score": "inactive: -0.25"}, {"sequence": "GCGACAAAUCAAAAAGGCCTT against Dnajb9", "z-score": "inactive: -0.0942"}, {"sequence": "GGAACACAAUGGAGACACATT against Prdm15", "z-score": "inactive: 1.69"}, {"sequence": "GGUAGUGUCUAACUUCUGGTT against Zkscan17", "z-score": "active: 2.13"}, {"sequence": "CGCCUCUAACUUAAUGUUUTT against Dnajc8", "z-score": "inactive: 0.362"}, {"sequence": "GGACUGUGACAAAGCACAUTT against Klk1b4", "z-score": "inactive: 0.805"}, {"sequence": "CCACGUCUCUUAAGUGAAATT against Scamp1", "z-score": "inactive: 0.569"}, {"sequence": "AGAUAUUUGGCUGUGACCGTT against Amt", "z-score": "inactive: -1.33"}, {"sequence": "GGAGCUCAAGGAAGAGUACTT against Spc25", "z-score": "inactive: -0.0738"}, {"sequence": "UGGUUACGAACCCAUGGGUTT against Amelx", "z-score": "inactive: -1.11"}, {"sequence": "GCAUAAGUAUAAUCCUGUUTT against Plagl1", "z-score": "inactive: -1.67"}, {"sequence": "CGAGGGAGACGAAAUUGUCTT against Fuom", "z-score": "inactive: -0.401"}, {"sequence": "GGAGGAACUGAUGACUCUGTT against Eepd1", "z-score": "inactive: 0.732"}, {"sequence": "GGAAGUAAAGAGGAUCUCATT against Vat1l", "z-score": "inactive: -0.678"}, {"sequence": "GGGAAACAGAUGAAAGAGUTT against Relch", "z-score": "inactive: 0.0344"}, {"sequence": "GCUGUAAAACCUGUCGUAATT against Mt4", "z-score": "inactive: -0.196"}, {"sequence": "GGAAAGAAUUGAAUACUCGTT against Gpr89", "z-score": "inactive: -0.279"}, {"sequence": "CCUCAGUUUUGCAUAUUAUTT against Dcun1d3", "z-score": "inactive: -1.24"}, {"sequence": "GGAGCUGAAAACCUGAGGATT against Pkn2", "z-score": "inactive: -1.19"}, {"sequence": "GCGCAUUCAGAUUGUAACATT against Nr2c2", "z-score": "inactive: -0.656"}, {"sequence": "GUAUGUUUGGGCUUAGCCUTT against Olfr1348", "z-score": "inactive: -1.21"}, {"sequence": "CCAUGGUUAACAUUGACAUTT against Ppp1r16b", "z-score": "inactive: -0.812"}, {"sequence": "GCAGUGUCAGAGUUAGAAATT against Pon1", "z-score": "inactive: -0.456"}, {"sequence": "CCACCUCACAUUAAAAAAGTT against Smc1a", "z-score": "inactive: -0.686"}, {"sequence": "GGUAUGAACACUUUCAAAATT against Olfr297", "z-score": "inactive: 0.927"}, {"sequence": "GGUGUCCAAGCAGAAGCAGTT against Rab25", "z-score": "inactive: -1.02"}, {"sequence": "GGUCUUCCGGAUCUUCAACTT against Adcyap1r1", "z-score": "inactive: 1.33"}, {"sequence": "CCAAUUAUCCUUCUGUUACTT against Olfr790", "z-score": "inactive: -0.765"}, {"sequence": "CGAGAAAAGACUAUGAUCCTT against Cep57l1", "z-score": "inactive: -1.27"}, {"sequence": "GGAAGAAUCACCAUUGAAGTT against Plcz1", "z-score": "inactive: -0.251"}, {"sequence": "GGCCUUUUUGCCACGUAUGTT against Dhrs3", "z-score": "inactive: 0.204"}, {"sequence": "GGAACAAGUCUUCAACUCATT against Wap", "z-score": "inactive: -0.732"}, {"sequence": "CGACGAACCUGAGUAUAUUTT against Canx", "z-score": "inactive: -0.0578"}, {"sequence": "GGAAGAAACUGGAAAGAUUTT against Ankrd23", "z-score": "inactive: -1.01"}, {"sequence": "CGAAGAAUGACGAUGAUAUTT against Ppp4r3a", "z-score": "active: -2.41"}, {"sequence": "CCACGAAUUAAGUAAUGGUTT against Rtl1", "z-score": "inactive: 1.17"}, {"sequence": "GGGCACAAUUCAAAACUUATT against Pgm2", "z-score": "inactive: 1.42"}, {"sequence": "GCACAAACUUAUGCUCUUUTT against Klrc3", "z-score": "inactive: -1.76"}, {"sequence": "GCAGCUCACCAUCCUUCAATT against Fcnb", "z-score": "inactive: 0.391"}, {"sequence": "GGCCUAAUAUUUUCAUAGATT against Prdx6b", "z-score": "inactive: 0.881"}, {"sequence": "GGCCAACCUACUUUUCUGGTT against Mgll", "z-score": "inactive: -1.18"}, {"sequence": "GCCAGAAGGACCUCUUCACTT against Arhgap24", "z-score": "inactive: -1.51"}, {"sequence": "GGAUCAUCAGUUUCUUUAUTT against 4930486L24Rik", "z-score": "inactive: -0.75"}, {"sequence": "GGGAAGUGGAAACAGUUCUTT against Icam2", "z-score": "inactive: 0.461"}, {"sequence": "GGGAAAUUGUAUUCAAUACTT against Cebpz", "z-score": "inactive: -0.296"}, {"sequence": "GGGUUACACAGAGUACAAATT against Snx15", "z-score": "inactive: -0.484"}, {"sequence": "CGACAAUCAGGAGAUUGCATT against Npm3", "z-score": "inactive: -0.484"}, {"sequence": "GGCUGAGUCUGGCUAACUUTT against Dio3", "z-score": "inactive: -1.07"}, {"sequence": "CCUAAGUAUCUUCUGUUGGTT against Hilpda", "z-score": "inactive: 0.438"}, {"sequence": "GCAAGCCAUGAGACACCUUTT against Olfr843", "z-score": "inactive: 0.929"}, {"sequence": "GGAAAGCAUGAGUUAAUAATT against Slain2", "z-score": "inactive: 1.38"}, {"sequence": "CGAUGGAGCUUUCAAAACUTT against Treml4", "z-score": "inactive: 0.617"}, {"sequence": "GCUAUUUCUAGGCAGACUGTT against Ypel5", "z-score": "inactive: 0.642"}, {"sequence": "GGACCAGACUUUGAAGAAUTT against Homer3", "z-score": "inactive: 0.777"}, {"sequence": "GGACCUGAGAUAUUUUCUGTT against Mfap5", "z-score": "inactive: -0.518"}, {"sequence": "GGUGCUGUGAUAGAUCAGUTT against Zdhhc13", "z-score": "inactive: 0.227"}, {"sequence": "GCCAGACUAAACAAUACCCTT against Cldn19", "z-score": "inactive: 0.305"}, {"sequence": "GGCUUAUUAUCAGGAAAUGTT against Plcz1", "z-score": "inactive: -1.32"}, {"sequence": "GGAAAUCUUUAUACAAGGATT against Pomgnt1", "z-score": "inactive: 0.923"}, {"sequence": "GCUAUCAACAAUCUUCGAATT against Cep131", "z-score": "inactive: 1.11"}, {"sequence": "GGUCUUUACCAUACACAGCTT against Zfp352", "z-score": "inactive: 0.242"}, {"sequence": "GCCCUGGAAAGGAUGUUUGTT against Hba-a1", "z-score": "inactive: -0.607"}, {"sequence": "GCAAUCACAAUCAGCUCCGTT against Vmn1r83", "z-score": "inactive: -0.0498"}, {"sequence": "CGUCCUUUAUUAGAGAUGATT against Got1", "z-score": "inactive: -0.903"}, {"sequence": "GCCACCAUUCGGAAAUUUGTT against Lrrc56", "z-score": "inactive: -0.891"}, {"sequence": "CCUGUAUAGGCAGCCUAGATT against Carmil3", "z-score": "inactive: 0.982"}, {"sequence": "GGUUGGUUUGAAGAUCAAGTT against Pole2", "z-score": "inactive: 1.38"}, {"sequence": "GCUACUAUUGUGUUCUGAATT against Drd1", "z-score": "active: 2.24"}, {"sequence": "GGUUCCAAGUCUAGUGGUGTT against Jpt1", "z-score": "inactive: 1.48"}, {"sequence": "GGGCAGAUGUAAUUCUUGUTT against Ctsm", "z-score": "inactive: 1.91"}, {"sequence": "CCAGCAUGCACUCAGAUUATT against Trib1", "z-score": "inactive: 1.5"}, {"sequence": "AGCAUCAUUACUGGAUUCCTT against Olfr859", "z-score": "inactive: -0.779"}, {"sequence": "GCAGUUAAAUCCCUUUCAUTT against Gin1", "z-score": "inactive: -0.228"}, {"sequence": "GGAUUACAAUCAGGAGGUGTT against Irf8", "z-score": "inactive: -1.64"}, {"sequence": "GCACAACAGCUAGCAAAUATT against Ppp1r26", "z-score": "inactive: 0.704"}, {"sequence": "CCUCUCACUAAAGACUUCCTT against Dlgap2", "z-score": "inactive: 1.31"}, {"sequence": "GGGUGAUGAUGCAUAUAAGTT against Asb5", "z-score": "inactive: -1.45"}, {"sequence": "GGAAUUUGCUGAAUUUAGUTT against Kdm4c", "z-score": "inactive: 0.681"}, {"sequence": "GGGUACUCACAGGAAAGUGTT against Olfr411", "z-score": "inactive: 0.985"}, {"sequence": "CGAGGAACUUCUGUGGAAATT against Mtus1", "z-score": "inactive: 1.34"}, {"sequence": "GGCGUGGAUUCUCAGAUAGTT against Pnn", "z-score": "inactive: -1.66"}, {"sequence": "CCCUCCAAUAUGGUUCACCTT against Optn", "z-score": "inactive: -0.684"}, {"sequence": "GGAGGUGGAUGUUAAAGUUTT against Ubxn2a", "z-score": "inactive: -0.206"}, {"sequence": "GGUCUCAUUUCAAAUGGUUTT against Lonrf3", "z-score": "inactive: 0.63"}, {"sequence": "GCUGAGGCAUAAAAACGAGTT against Atad3a", "z-score": "inactive: -0.643"}, {"sequence": "GGUCUUUCCAUUCAUACUUTT against Sec24a", "z-score": "inactive: -1.52"}, {"sequence": "GGUGUUCUGUGGUCAUGAGTT against Haghl", "z-score": "inactive: -0.741"}, {"sequence": "CCUCUACUACAACUGAUUATT against Lamp3", "z-score": "inactive: 1.17"}, {"sequence": "GAGCUACGAGGUACAGUUATT against Ifi202b", "z-score": "inactive: 1.29"}]}]}
